Experimental findings from PMC4650718 are described below.

Data set [1] deals with T1, His-Sall2 (Mus musculus) (UniProt Q9QX96).
T1 sequence (looked up, limits assumed): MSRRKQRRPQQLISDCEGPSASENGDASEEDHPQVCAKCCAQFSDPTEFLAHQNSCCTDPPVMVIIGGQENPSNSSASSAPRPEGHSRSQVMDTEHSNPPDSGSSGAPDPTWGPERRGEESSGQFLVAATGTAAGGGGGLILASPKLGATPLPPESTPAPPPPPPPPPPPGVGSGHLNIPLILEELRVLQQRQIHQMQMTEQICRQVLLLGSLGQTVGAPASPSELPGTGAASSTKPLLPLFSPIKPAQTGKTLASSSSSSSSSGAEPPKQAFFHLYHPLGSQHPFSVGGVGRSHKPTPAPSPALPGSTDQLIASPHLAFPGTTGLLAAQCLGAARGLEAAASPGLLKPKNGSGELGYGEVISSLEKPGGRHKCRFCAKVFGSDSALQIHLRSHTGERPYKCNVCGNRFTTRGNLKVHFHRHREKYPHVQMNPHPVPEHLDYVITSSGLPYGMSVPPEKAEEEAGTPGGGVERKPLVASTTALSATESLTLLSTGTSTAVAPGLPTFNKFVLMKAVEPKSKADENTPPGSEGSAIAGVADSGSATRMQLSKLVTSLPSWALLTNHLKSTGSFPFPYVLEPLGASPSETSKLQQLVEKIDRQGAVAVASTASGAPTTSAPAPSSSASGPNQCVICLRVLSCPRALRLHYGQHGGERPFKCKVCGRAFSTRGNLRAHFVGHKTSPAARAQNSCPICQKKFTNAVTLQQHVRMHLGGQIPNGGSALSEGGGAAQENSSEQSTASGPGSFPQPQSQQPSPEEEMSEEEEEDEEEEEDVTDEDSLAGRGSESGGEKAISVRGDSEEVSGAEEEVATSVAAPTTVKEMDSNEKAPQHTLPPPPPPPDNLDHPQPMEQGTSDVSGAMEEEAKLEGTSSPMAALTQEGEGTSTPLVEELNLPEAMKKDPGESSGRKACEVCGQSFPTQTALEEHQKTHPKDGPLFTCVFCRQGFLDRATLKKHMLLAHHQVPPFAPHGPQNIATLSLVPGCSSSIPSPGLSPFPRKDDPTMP
Briefly: EMSA. The conditions noted are these: 5 uM ZnCl2, 2.5 mM MgCl2, 50 nM protein, EMSA: 10 mM HEPES pH 7.5, 100 mM KCl, 3 mM DTT, 0.05% NP-40, 3% glycerol, 5 ug/ml BSA, 2.5 mM MgCl2, 5 uM ZnCl2, 100 ng pBluescript DNA, 20 fmol probe in 20 ul, recombinant protein, protein details: N-terminal 6xHis (pQE-80L), label: 32P end label.

For data set [2], the target named is T2, Sall2-GFP (Mus musculus) (UniProt Q9QX96).
T2 sequence (looked up, limits assumed): T1 sequence (looked up, limits assumed)
The data set is described as follows: EMSA. The conditions noted are these: HEK293 nuclear extract, EMSA: 10 mM HEPES pH 7.5, 100 mM KCl, 3 mM DTT, 0.05% NP-40, 3% glycerol, 5 ug/ml BSA, 2.5 mM MgCl2, 5 uM ZnCl2, 100 ng pBluescript DNA, 20 fmol probe in 20 ul, protein in an extract, protein details: C-terminal GFP, label: 32P end label. On the technique in general: In EMSA bound probe runs differently from free probe, usually more slowly.

The mark [3] stands for this setting: strong binding, anti-GFP supershift.

The exact form of at least one protein or probe is not confirmed. For some assays here: The comparison behind a weaker result is the experiment's own reference, which may not be listed here. Where a protein sequence is shown, tags need not be part of it. For some assays here: Results from cells or extracts need not show a direct contact. At least one verdict was read from the data and is not stated in words by the source.

For “TCTGCGGGGCGGGGACAGGGGCGGGGACAGG (double strand) [h(2+3)]”, the binding result in data set [1] (weaker than cSall2, m(1+2), h(1+2)) is listed as “binds more weakly”.
For the sequence “TCGAAGGGGCGGGGACACGGGCGGGATGTCG (double strand) [m(1+2)]”, the binding result in data set [1] (similar to cSall2, supershift with anti-His) was “binds”; in data set [2] (setting [3]) it was “binds”.
Turning to “GGACAGGGGCGGGGACAGGGGCGGGCCGGGC (double strand) [h(1+2)]”, the binding result in data set [1] (similar to cSall2) and in data set [2] (setting [3]) was “binds” in each case.
Take “TCTGCGGGGCGGGGACAGGGGCGGGGACAGGGGCGGGCCGGGC (double strand) [h(1+2+3)]”: the binding result in data set [1] (single retardation band) is “binds”.
As for “CGATCGGGGCGGGGCGAGGGGCGGGCCGATC (double strand) [cSall2 double site, cSall2(II)]”, the binding result in data set [1] (supershift with anti-His) and in data set [2] was “binds” throughout.
